Results from PubChem BioAssay AID248 (DTP/NCI, 2004).
The list does not hold the whole screen: it is rich in T/C values a quarter to a half above the control, in often repeated tests (any T/C) and in doses without a T/C. Further doses and runs are listed elsewhere. T/C is the treated group as % of the vehicle group. Some doses have a count of surviving animals in place of a T/C: the source files T/C as zero there, which appears to mark a toxic dose or a test without result, not a measured value. Counts of survivors are from the toxicity check (mostly the fifth day) where no day follows; animals may have died later. Schedules are NCI's codes, read here as Q, the interval in days (D) or hours (H), X, the number of doses. Some schedule codes hold Z or #, which are not explained here. Where survival is the endpoint, this PubChem deposit counts one and a half times the control or more as active, and values a quarter to a half above the control carry no call in these data; other NCI protocols may use other cut-offs. Some T/C values carry the count of animals alive at the toxicity check (mostly the fifth day); where none is given, no animal had died by that day. Some entries were tested several times; the values are given in rising order. Additions like (4×) count equal records among those shown.

System: L1210 leukemia ip in BDF1 mice, survival T/C
Assay: NCI In Vivo Anticancer Drug Screen. Data for tumor model L1210 Leukemia (intraperitoneal) in B6D2F1 (BDF1) mice
Settings: T/C endpoint: mean survival time, higher T/C = longer survival
[1] = dose: 222.0 mg/kg/injection, schedule: Q01DX Z (ip), vehicle: methylcellulose (MC)
[2] = dose: 333.0 mg/kg/injection, schedule: Q01DX Z (ip), vehicle: methylcellulose (MC)

Nc1n[nH]c(N)n1
T/C (dose: 100.0 mg/kg/injection, schedule: Q03HX024 (ip), vehicle: saline): 115, 117, 121, 122 % of control | T/C (dose: 100.0 mg/kg/injection, schedule: Q#A X010 (ip), vehicle: saline): 134 % of control | T/C (dose: 100.0 mg/kg/injection, schedule: Q#A X020 (ip), vehicle: saline): 129 % of control | T/C (dose: 112.0 mg/kg/injection, schedule: Q03HX008 (ip), vehicle: water): 127 % of control | T/C (dose: 112.0 mg/kg/injection, schedule: Q03HX024 (ip), vehicle: water): 127 % of control | T/C (dose: 112.0 mg/kg/injection, schedule: Q03HX040 (ip), vehicle: water): 130 % of control | T/C (dose: 112.0 mg/kg/injection, schedule: Q#A X018 (ip), vehicle: water): 128 % of control | T/C (dose: 112.0 mg/kg/injection, schedule: Q#A X034 (ip), vehicle: water): 129 % of control [7 of 8 alive] | T/C (dose: 128.0 mg/kg/injection, schedule: Q#A X022 (ip), vehicle: other): 133 % of control | T/C (dose: 150.0 mg/kg/injection, schedule: Q03HX008 (ip), vehicle: saline): 126 % of control | T/C (dose: 150.0 mg/kg/injection, schedule: Q03HX016 (ip), vehicle: saline): 138 % of control | T/C (dose: 150.0 mg/kg/injection, schedule: Q03HX024 (ip), vehicle: saline): 128, 138, 139, 149 % of control | survivor count (dose: 166.0 mg/kg/injection, schedule: Q01DX Z (ip), vehicle: methylcellulose (MC)): 3 of 6 | T/C (dose: 200.0 mg/kg/injection, schedule: Q01DX009 (ip), vehicle: Klucel (hydroxypropylcellulose) (HPC)): 126 % of control [5 of 6 alive] | T/C (dose: 200.0 mg/kg/injection, schedule: Q01DX009 (ip), vehicle: saline, evaluated on day 30): 103, 110, 112, 114, 118, 122 (2×), 123, 124 (2×), 126, 127 [5 of 6 alive], 136, 137 % of control | T/C (dose: 200.0 mg/kg/injection, schedule: Q01DX009 (ip), vehicle: saline, evaluated on day 60): 136 and 137 % of control | T/C (dose: 200.0 mg/kg/injection, schedule: Q01DX009 (ip), vehicle: saline, run until all animals had died): 125 % of control | T/C (dose: 200.0 mg/kg/injection, schedule: Q01DX010 (ip), vehicle: saline): 134 and 146 % of control | T/C (dose: 200.0 mg/kg/injection, schedule: Q#A X034 (ip), vehicle: water): 135 % of control | T/C [1]: 108, 119, 131 % of control | survivor count [1]: 0 of 6 | T/C (dose: 225.0 mg/kg/injection, schedule: Q01DX009 (ip), vehicle: water): 138 % of control | T/C (dose: 225.0 mg/kg/injection, schedule: Q03HX008 (ip), vehicle: saline): 139 % of control | T/C (dose: 225.0 mg/kg/injection, schedule: Q03HX008 (ip), vehicle: water): 140 % of control | T/C (dose: 225.0 mg/kg/injection, schedule: Q03HX016 (ip), vehicle: saline): 148 % of control | T/C (dose: 225.0 mg/kg/injection, schedule: Q03HX024 (ip), vehicle: saline, evaluated on day 40): 129 % of control | T/C (dose: 225.0 mg/kg/injection, schedule: Q03HX024 (ip), vehicle: saline, evaluated on day 45): 144, 152, 155, 159 % of control | T/C (dose: 225.0 mg/kg/injection, schedule: Q03HX040 (ip), vehicle: water): 136 % of control | T/C (dose: 225.0 mg/kg/injection, schedule: Q12HX018 (ip), vehicle: saline): 127 % of control | T/C (dose: 225.0 mg/kg/injection, schedule: Q#A X034 (ip), vehicle: water): 128 % of control | T/C (dose: 238.0 mg/kg/injection, schedule: Q03HX024 (ip), vehicle: saline, evaluated on day 5): 125 % of control | T/C (dose: 238.0 mg/kg/injection, schedule: Q03HX024 (ip), vehicle: saline, evaluated on day 60): 125 % of control | T/C (dose: 250.0 mg/kg/injection, schedule: Q01DX015 (ip), vehicle: saline): 130 % of control | T/C (dose: 250.0 mg/kg/injection, schedule: Q01DX Z (ip), vehicle: other): 126 % of control | T/C (dose: 250.0 mg/kg/injection, schedule: Q01DX Z (ip), vehicle: saline): 142 % of control | T/C (dose: 250.0 mg/kg/injection, schedule: Q01DX Z (ip), vehicle: water): 139 % of control | T/C (dose: 256.0 mg/kg/injection, schedule: Q#A X012 (ip), vehicle: other): 127 % of control | T/C (dose: 300.0 mg/kg/injection, schedule: Q06HX016 (ip), vehicle: saline): 142 % of control | T/C [2]: 108, 139, 141 % of control | survivor count [2]: 3 of 6 | T/C (dose: 335.0 mg/kg/injection, schedule: Q03HX008 (ip), vehicle: saline): 146 % of control | T/C (dose: 335.0 mg/kg/injection, schedule: Q03HX024 (ip), vehicle: saline): 189, 190, 203, 222 % of control | T/C (dose: 350.0 mg/kg/injection, schedule: Q03HX032 (ip), vehicle: saline): 174, 188 [9 of 10 alive], 203, 222 % of control | T/C (dose: 362.0 mg/kg/injection, schedule: Q03HX024 (ip), vehicle: saline, evaluated on day 5): 182 and 232 % of control | T/C (dose: 362.0 mg/kg/injection, schedule: Q03HX024 (ip), vehicle: saline, evaluated on day 45): 182 % of control | T/C (dose: 362.0 mg/kg/injection, schedule: Q03HX024 (ip), vehicle: saline, evaluated on day 60): 232 % of control | T/C (dose: 400.0 mg/kg/injection, schedule: Q01DX006 (iv), vehicle: saline): 132 % of control | T/C (dose: 400.0 mg/kg/injection, schedule: Q01DX009 (ip), vehicle: Klucel (hydroxypropylcellulose) (HPC)): 135 [5 of 6 alive] and 144 % of control [4 of 6 alive] | T/C (dose: 400.0 mg/kg/injection, schedule: Q01DX009 (ip), vehicle: saline, evaluated on day 30): 103, 129 (3×), 134, 135, 137, 139, 140 (2×), 143 (2×), 144, 146 % of control [5 of 6 alive] | T/C (dose: 400.0 mg/kg/injection, schedule: Q01DX009 (ip), vehicle: saline, evaluated on day 60): 140, 143, 145 % of control | T/C (dose: 400.0 mg/kg/injection, schedule: Q01DX009 (ip), vehicle: saline, run until all animals had died): 125 % of control | T/C (dose: 400.0 mg/kg/injection, schedule: Q01DX010 (im), vehicle: saline): 130 % of control | T/C (dose: 400.0 mg/kg/injection, schedule: Q01DX010 (sc), vehicle: saline): 139 % of control | T/C (dose: 400.0 mg/kg/injection, schedule: Q01DX017 (ip), vehicle: water): 146 % of control | T/C (dose: 400.0 mg/kg/injection, schedule: Q12HX018 (ip), vehicle: water): 142 % of control | T/C (dose: 450.0 mg/kg/injection, schedule: Q01DX005 (ip), vehicle: water): 129 % of control | T/C (dose: 450.0 mg/kg/injection, schedule: Q03HX032 (ip), vehicle: saline): 175, 221 (2×), 229, 294, 313 % of control | T/C (dose: 450.0 mg/kg/injection, schedule: Q12HX010 (ip), vehicle: water): 134 % of control | T/C (dose: 450.0 mg/kg/injection, schedule: Q12HX018 (ip), vehicle: water): 129 % of control | T/C (dose: 450.0 mg/kg/injection, schedule: Q## X018 (ip), vehicle: saline): 147 % of control | T/C (dose: 500.0 mg/kg/injection, schedule: Q01DX Z (ip), vehicle: methylcellulose (MC)): 126 % of control
